## Percent effect of library compounds

Protein sequences, listed by entry. Tags and fused reporters are not part of them. Residues count along the entry.
UniProt Q4DA54, 1-478: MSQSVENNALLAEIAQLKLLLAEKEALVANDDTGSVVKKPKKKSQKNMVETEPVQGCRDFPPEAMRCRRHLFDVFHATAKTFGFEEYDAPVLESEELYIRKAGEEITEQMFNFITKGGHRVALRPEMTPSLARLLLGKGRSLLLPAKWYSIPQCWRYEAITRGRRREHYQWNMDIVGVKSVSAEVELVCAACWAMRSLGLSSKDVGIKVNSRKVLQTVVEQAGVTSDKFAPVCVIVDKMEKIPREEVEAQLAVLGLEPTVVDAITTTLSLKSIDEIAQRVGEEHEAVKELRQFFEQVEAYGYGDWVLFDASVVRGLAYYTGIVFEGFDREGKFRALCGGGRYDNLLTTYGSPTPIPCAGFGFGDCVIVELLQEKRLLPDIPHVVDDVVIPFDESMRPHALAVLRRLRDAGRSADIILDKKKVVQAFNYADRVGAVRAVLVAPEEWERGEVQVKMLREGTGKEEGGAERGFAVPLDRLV
UniProt A4I591, 1-473: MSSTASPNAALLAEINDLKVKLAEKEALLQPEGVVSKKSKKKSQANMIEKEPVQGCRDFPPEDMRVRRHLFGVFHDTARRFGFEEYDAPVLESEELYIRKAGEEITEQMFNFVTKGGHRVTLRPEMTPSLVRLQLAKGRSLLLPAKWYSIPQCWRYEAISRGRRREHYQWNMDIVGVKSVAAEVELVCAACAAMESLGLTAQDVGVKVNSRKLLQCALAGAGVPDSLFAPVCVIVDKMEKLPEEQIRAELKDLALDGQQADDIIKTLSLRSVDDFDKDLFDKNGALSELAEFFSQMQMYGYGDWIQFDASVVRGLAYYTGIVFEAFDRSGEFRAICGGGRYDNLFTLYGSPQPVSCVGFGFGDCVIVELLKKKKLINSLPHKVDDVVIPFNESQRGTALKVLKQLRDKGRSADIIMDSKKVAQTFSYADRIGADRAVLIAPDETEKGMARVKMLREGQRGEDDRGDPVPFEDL
UniProt P9WPC5, whole entry: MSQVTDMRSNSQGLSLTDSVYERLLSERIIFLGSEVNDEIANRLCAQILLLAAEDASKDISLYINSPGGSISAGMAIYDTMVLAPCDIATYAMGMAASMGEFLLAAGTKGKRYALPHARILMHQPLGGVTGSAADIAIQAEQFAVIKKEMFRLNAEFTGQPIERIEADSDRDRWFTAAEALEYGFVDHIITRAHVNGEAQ
UniProt P9WPC3, whole entry partner: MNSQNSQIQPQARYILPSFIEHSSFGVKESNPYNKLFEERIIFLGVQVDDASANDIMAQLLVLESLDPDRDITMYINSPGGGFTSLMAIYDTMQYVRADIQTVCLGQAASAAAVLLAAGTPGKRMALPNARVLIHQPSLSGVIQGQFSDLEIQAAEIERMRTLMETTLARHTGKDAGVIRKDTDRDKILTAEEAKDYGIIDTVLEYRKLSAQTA

Source: ChEMBL document CHEMBL3988442, “University of Dundee, Small-Polar-MMV Screening Library” (2021).

Each number is a percent effect as filed.
The controls that fix the scale are not given in the record; negative values are as filed.
The compounds are a random part of those screened.
A dash means the value is not listed here; it may have been measured.

A: 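Assay of Toxoplasma gondii numbers, read through their beta-galactosidase reporter with a colour substrate. Tested at 10 µM. Higher reads as fewer parasites (inferred from which compounds were picked for retests). Size under these conditions: about 67,000 compounds, about 260 of them at 50% or above in at least one test.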
B: 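Cell assay of Leishmania donovani living inside macrophages; the read-out is not stated. Compounds at 30 µM. Direction is inferred from retests: higher values go with stronger inhibition. Of about 69,000 compounds tested this way, about 1,000 (1.5%) reached 50% or more in at least one test.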
C: 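Enzyme assay of histidyl-tRNA synthetase; the read-out is not stated. Target: Histidine-tRNA ligase, Trypanosoma cruzi CL Brener (UniProt Q4DA54). Concentration: 30 µM. Direction is inferred from retests: higher values go with stronger inhibition. Size under these conditions: about 69,000 compounds, about 31 of them at 50% or above in at least one test.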
D: 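Enzyme assay of histidyl-tRNA synthetase; the read-out is not stated. Target: Histidine-tRNA ligase, Leishmania infantum (UniProt A4I591). Compounds at 30 µM. Higher reads as stronger inhibition (inferred: compounds with an IC50 in retests scored well above the rest). The assay is labelled LdHisRS but filed under L. infantum. Size under these conditions: about 69,000 compounds, about 410 of them at 50% or above in at least one test.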
E: 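ClpP1P2, Mycobacterium tuberculosis (UniProt P9WPC5 and UniProt P9WPC3). Protease assay of ClpP1P2, read by the AMC dye that it sets free. Tested at 50 µM. Higher reads as stronger inhibition, judged from the few compounds that gave an IC50. Most other retested compounds had strongly negative values. About 69,000 compounds were tested under these conditions; 0.015% (about 10) showed 50% or more at least once.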
F: 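Whole-parasite assay of Trypanosoma brucei over 72 hours; the read-out is not stated. Tested at 30 µM. Direction is inferred from retests: higher values go with stronger inhibition. Values scatter widely below zero; nearly all retest evidence comes from the higher of the two concentrations used. Of about 64,000 compounds tested this way, about 940 (1.5%) reached 50% or more in at least one test.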

structure	A	B	C	D	E	F
Cc1ccccc1N1CCN(C(=O)c2cscn2)C(C)C1 (stereo not shown)	5.172	17.93	4.082	13.89	1.4	-44.71
Cc1noc(C2CCC3(CCN(C(=O)C4CCOCC4)CC3)O2)n1 (stereo not shown)	5.719	1.795	5.607	4.167	-13.59	-28.42
Cc1nc(CN2CCCC(NCc3cnn(C)c3)C2)no1 (stereo not shown)	-1.887	11.25	3.448	8.696	-12.85	2.348
CCS(=O)(=O)NC1CCCN(c2cc(C)ccc2F)C1=O (stereo not shown)	0.05359	3.799	5.172	9.821	-2.413	-20.26
O=C(O)C(F)(F)F.[H][C@@]12CCN(C3CCOCC3)[C@]1([H])CC[C@H](C(=O)N1CCOCC1)O2	-11.86	38.25	-	-	-	8.464
Cc1cc(N2CCCC2c2cc(Nc3cnccn3)nc(C)n2)ncn1 (stereo not shown)	-25.39	5.93	3.745	8	-8.516	14.7
Cc1nc(C2CCCNC2)cc(N(C)CCc2cn[nH]c2)n1 (stereo not shown)	4.118	29.46	1.02	13.22	-4.225	4.3
O=C(O)C(F)(F)F.[H][C@@]12CCN(CC3CCOCC3)C[C@]1(C(=O)NCc1ccco1)CCO2	3.268	-11.96	-	-	-	-22.26
Cc1cc(C)n(CC(C)NCCn2nc(C)c(Cl)c2C)n1 (stereo not shown)	-2.092	23.89	3.415	33.9	-22.36	-5.796
Cc1ncsc1CN1CC2(CCCC2)CC1=O	-11.62	2.618	8.434	12	-11.3	-19.39
COc1ccc(C(=O)C2CCCN(c3cc(OC)ncn3)C2)c(C)c1 (stereo not shown)	28.06	27.19	12.12	19.67	-14.67	25.96
Cc1nc(C(C)(C)C)sc1C(=O)NCCNc1ncccc1C#N	5.855	5.587	3.779	9.649	-25.57	-10.06
O=C(O)C(F)(F)F.c1cc(CN2CCCn3cnc(COCC4CC4)c3C2)co1	-5.565	-12.57	-	-	-	-22.05
COc1ccc2cccc(CC(=O)NCCc3n[nH]c(=O)[nH]3)c2c1	-0.1142	18.6	7.895	19.17	-7.817	-18.27
CCOC(=O)N1CCN(c2nc(NCCO)c3ccccc3n2)CC1	1.02	1.884	9.091	-81.67	4.196	-12.26
CC(C)Oc1cccc(C(=O)C2CCCN(C(=O)c3cncs3)C2)c1 (stereo not shown)	-0.2245	17.74	3.333	1.887	-5.859	-8.298
CN1CCC2(CCN(CC3CC3)CC2)C1=O	-	-	1.075	5.263	0.04871	-
O=C(O)C(F)(F)F.[H][C@@]12CCN(Cc3ccoc3)C[C@@]1([H])O[C@H](C(=O)NC1CCCC1)C2	-51.33	62.18	-	-	-	-88.78
N#Cc1ccc(CN2CCOCC2)cc1	1.076	14.57	9.901	-7.143	23.01	-22.79
CS(=O)(=O)N1C[C@H](NC(=O)c2ccno2)[C@@H]2OCCC[C@@H]21	-	-	7.407	10	-1.613	-
CN1CC(=O)N(c2ccsc2)CC12CCN(S(=O)(=O)c1ccccc1)C2 (stereo not shown)	-	-	4.294	12.35	-4.347	-
CC(=O)N1CCC2(CC1)COCCN2Cc1ccc(F)cc1	-	-	1.657	7.519	5.271	-
O=C(O)C(F)(F)F.[H][C@@]12COC[C@]1(CN(C)C)CN(C(=O)c1cc(C)c(C)s1)C2	-4.84	11.28	-	-	-	-31.43
Cc1nc(CN2CCc3ccc(S(N)(=O)=O)cc32)oc1C	4.475	-6.052	9.392	6.218	0.18	-0.3214
COCCCC1(CO)CCCN(CCc2ccccn2)C1 (stereo not shown)	-4.181	9.434	0	1.613	-10.61	-19.7
COCCNc1nc(N2CCOCC2)nc2nccnc12	2.065	21.04	9.375	-33.33	10.56	-
COC(C(=O)N1CCN(c2cccc(Cl)c2)C(=O)C1)c1ccccc1 (stereo not shown)	-1.385	20.91	4.167	17.31	-18.04	-15.27
COCc1nc(N(C)C)ncc1C(=O)OC	11.25	14.08	0	12.07	15.34	-6.821
CN(C)CCO[C@H]1CN(Cc2ccc3c(c2)OCO3)[C@@H]2COC[C@H]12	-	-	6.863	17.14	5.215	-
COc1ccc(F)cc1C(=O)N1C[C@H]2CC[C@@H]1CN(c1ncccn1)C2	-	-	-2.513	16.8	-3.819	-
[H][C@@]12OCCN(C(=O)c3nn(C)c4ccccc34)[C@@]1([H])CC[C@H]2OCC	4.517	-0.6834	-	-	-	-40.94
CCc1oc(C(=O)N2CCC(N(CC)C(C)=O)C2)cc1CN(CC)CC (stereo not shown)	-11.6	7.977	8.458	13.99	-10.85	-9.589
COc1ccc(S(=O)(=O)N2C[C@H](OC)[C@]3(CCCO3)C2)cc1	5.814	-8.077	7.895	9.929	23.19	-
COc1cccc(C(O)Cn2ncc3ncccc3c2=O)c1 (stereo not shown)	-0.8813	8.002	7.937	20.59	4.037	21.93
Cc1ncnc2c1CCN(C(=O)c1ccsc1)CC2	-4.933	-17.06	2.488	0	-6.926	-49.65
COc1ccc(C(=O)N2C[C@@H](O)[C@H](NCCc3ncccc3C)C2)cc1	6.706	26.45	13.07	15.29	-0.9062	-12.33
CCC1COCCN1C(=O)NCc1nccn1Cc1ccccc1 (stereo not shown)	2.754	4.135	3.867	1.036	-10.86	-42.29
CCCC(=O)N1CCCC(c2cc3cccnc3c(O)n2)C1 (stereo not shown)	3.101	-3.922	16.92	11.35	0.7102	-
CCn1c(CC2CCN(S(=O)(=O)c3cccc(C)c3)CC2)nn(C)c1=O	-25.32	12.37	-5.6	13.11	8.123	10.78
O=C(O)C(F)(F)F.[H][C@@]12COC[C@]1(CNC(=O)C1CC1)CN(Cc1cccc(OC)c1)C2	-30.11	43.72	-	-	-	3.259
NC(=O)N1CCC2(CC1)CN(c1ncccn1)CCO2	-4.098	43.92	3.061	31	5.703	-22.13
CSc1ncnc(NCc2ccccc2F)c1C#N	10.69	3.891	0.5181	21.51	12.06	-9.803
CC(C)(C)CC(=O)N1CSCC1C(=O)NC1=NCCS1 (stereo not shown)	-9.899	-14.6	0	27.4	-1.564	30.24
CS(=O)(=O)Cc1ccc(Cl)cc1NCc1cccc(F)c1F	-5.177	15.72	7.143	1.613	10.3	9.461

5 of the entries, repeated:

| structure | A | B | C | D | E | F |
|---|---|---|---|---|---|---|
| `CCn1c(CC2CCN(S(=O)(=O)c3cccc(C)c3)CC2)nn(C)c1=O` | -25.32 | 12.37 | -5.6 | 13.11 | 8.123 | 10.78 |
| `Cc1noc(C2CCC3(CCN(C(=O)C4CCOCC4)CC3)O2)n1` (stereo not shown) | 5.719 | 1.795 | 5.607 | 4.167 | -13.59 | -28.42 |
| `CCOC(=O)N1CCN(c2nc(NCCO)c3ccccc3n2)CC1` | 1.02 | 1.884 | 9.091 | -81.67 | 4.196 | -12.26 |
| `O=C(O)C(F)(F)F.[H][C@@]12CCN(CC3CCOCC3)C[C@]1(C(=O)NCc1ccco1)CCO2` | 3.268 | -11.96 | - | - | - | -22.26 |
| `Cc1cc(C)n(CC(C)NCCn2nc(C)c(Cl)c2C)n1` (stereo not shown) | -2.092 | 23.89 | 3.415 | 33.9 | -22.36 | -5.796 |